Data taken from the supplement of paper PMC4604168 (melanoma cell lines).
The list shows a part of the results. Repeats are few or missing, and single values can be far off.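 The apoptosis fraction was the count of cleaved-PARP antibody-stained nuclei relative to all DNA-stained nuclei, imaged in 1,536-well plates. Screening doses were set so most cells survived, and baseline and induced cleaved-PARP levels vary greatly across cell lines.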

What follows are compounds tested on WM3526 (assay: cleaved PARP positive nuclei fraction relative to DMSO control; melanoma cells; higher = more apoptosis). Details: library dose: low library concentration; 72 h.
`CC1(C)CCC(c2ccc(Cl)cc2)=C(CN2CCN(c3ccc(C(=O)NS(=O)(=O)c4ccc(N[C@H](CCN5CCOCC5)CSc5ccccc5)c(S(=O)(=O)C(F)(F)F)c4)cc3)CC2)C1` + Cn1cc(C2=C(c3cn(C4CCN(Cc5ccccn5)CC4)c4ccccc34)C(=O)NC2=O)c2ccccc21 [Enzastaurin] (first compound 0.4 µM, partner dose 0.8 µM) was tested, and the “cleaved PARP positive nuclei fraction” value was 162%.
In the case of `NC(=O)c1ccc(N(C(N)=O)c2c(F)cccc2F)nc1-c1ccc(F)cc1F` + C[As](C)SC[C@H](NC(=O)CC[C@H](N)C(=O)O)C(=O)NCC(=O)O [Darinaparsin] (first compound 0.4 µM, partner dose 0.4 µM), the “cleaved PARP positive nuclei fraction” value is reported as 46.1%.
With `C[C@]12O[C@H](C[C@]1(O)CO)n1c3ccccc3c3c4c(c5c6ccccc6n2c5c31)CNC4=O` [Lestaurtinib] + Oc1nc(-c2ccc(C(F)(F)F)cc2)nc2c1CSCC2 [XAV939] (first compound 0.004 µM, partner dose 2 µM) the “cleaved PARP positive nuclei fraction” value was 85.5%.
For `CCCCCCCCCCCCCCCCCCOP(=O)([O-])OC1CC[N+](C)(C)CC1` [Perifosine] + Cn1cc(C2=C(c3cn(C4CCN(Cc5ccccn5)CC4)c4ccccc34)C(=O)NC2=O)c2ccccc21 [Enzastaurin] (first compound 0.4 µM, partner dose 0.8 µM), the “cleaved PARP positive nuclei fraction” value was 38.6%.
With `COc1cc2ncnc(Nc3ccc(Oc4ccccc4)cc3)c2cc1OC` + C/C(O)=C(\C#N)C(=O)Nc1cc(Br)ccc1Br [LFM-A13] (first compound 2 µM, partner dose 2 µM) the “cleaved PARP positive nuclei fraction” value was 356%.
For `C[C@]12O[C@H](C[C@]1(O)CO)n1c3ccccc3c3c4c(c5c6ccccc6n2c5c31)CNC4=O` [Lestaurtinib] + CCN(CC)CCCCNc1ncc2cc(-c3cc(OC)cc(OC)c3)c(NC(=O)NC(C)(C)C)nc2n1 [PD173074] (first compound 0.004 µM, partner dose 0.1 µM), the “cleaved PARP positive nuclei fraction” value was 96.3%.
In the case of `NC(=O)Nc1cc(-c2cccc(F)c2)sc1C(=O)N[C@H]1CCCNC1` + C/C(O)=C(\C#N)C(=O)Nc1cc(Br)ccc1Br [LFM-A13] (first compound 0.02 µM, partner dose 2 µM), the “cleaved PARP positive nuclei fraction” value is reported as 90.6%.
With `Cc1ccc(Nc2nccc(N(C)c3ccc4c(C)n(C)nc4c3)n2)cc1S(N)(=O)=O` [Pazopanib] + Cn1cc(C2=C(c3cn(C4CCN(Cc5ccccn5)CC4)c4ccccc34)C(=O)NC2=O)c2ccccc21 [Enzastaurin] (first compound 0.4 µM, partner dose 0.8 µM) the “cleaved PARP positive nuclei fraction” value was 44.5%.
In the case of `Cc1cc(Nc2cc(N3CCN(C)CC3)nc(Sc3ccc(NC(=O)C4CC4)cc3)n2)n[nH]1` [Tozasertib] + C/C(O)=C(\C#N)C(=O)Nc1cc(Br)ccc1Br [LFM-A13] (first compound 0.006 µM, partner dose 2 µM), the “cleaved PARP positive nuclei fraction” value is reported as 175%.
In the case of `N.N.[Cl][Pt][Cl]` [cisplatin] + O=c1cc(-c2cccc3c2Sc2ccccc2S3)oc(N2CCOCC2)c1 [KU55933] (first compound 1.6 µM, partner dose 1 µM), the “cleaved PARP positive nuclei fraction” value is reported as 71.5%.
In the case of `Cc1cc(SCc2sc(-c3ccc(C(F)(F)F)c(F)c3)nc2C)ccc1OCC(=O)O` + O=c1cc(-c2cccc3c2Sc2ccccc2S3)oc(N2CCOCC2)c1 [KU55933] (first compound 2 µM, partner dose 1 µM), the “cleaved PARP positive nuclei fraction” value is reported as 78.8%.
For `Cn1cc(C2=C(c3cn(C4CCN(Cc5ccccn5)CC4)c4ccccc34)C(=O)NC2=O)c2ccccc21` [Enzastaurin] + CN(c1ncccc1CNc1nc(Nc2ccc3c(c2)CC(=O)N3)ncc1C(F)(F)F)S(C)(=O)=O [PF562271] (first compound 0.8 µM, partner dose 0.08 µM), the “cleaved PARP positive nuclei fraction” value was 17%.
`CN(NC(=O)CC(=O)NN(C)C(=S)c1ccccc1)C(=S)c1ccccc1` + Cc1cc(SCc2sc(-c3ccc(C(F)(F)F)c(F)c3)nc2C)ccc1OCC(=O)O [GW0742] (first compound 0.006 µM, partner dose 2 µM) was tested, and the “cleaved PARP positive nuclei fraction” value was 34.3%.
In the case of `C[C@]12O[C@H](C[C@]1(O)CO)n1c3ccccc3c3c4c(c5c6ccccc6n2c5c31)CNC4=O` [Lestaurtinib] + COc1ccc(COc2ccc(Cc3cnc(N)nc3N)cc2OC)cc1 [GW2580] (first compound 0.004 µM, partner dose 1 µM), the “cleaved PARP positive nuclei fraction” value is reported as 87.3%.
